At least one structure is not confirmed: it was looked up by name or label, or the drawing left a doubt.
Tested on: p53
Assay: p21 luciferase assay (p53 inhibition) in U20S cells upon doxorubicin
Format: cell-based
Details: compared with lead / ortho-methyl analogs
Method: U20S Cells were transfected with p21 luciferase (1 μg) and renilla luciferase (100 ng) vectors in 6 well plate format using Fugene 6 (Roche). Briefly, total of 1.1 micrograms of vector was incubated with […] of Fugene 6 reagent for 30 min. After 3-4 hours of transfection, cell were treated with compounds for overnight, and then exposed to 300 nanogram of doxorubicin for next 24 hours. In these experiments, DMSO, transfected cells with empty vector and cell without doxorubicin were used as controls. DMSO concentration is maintained at 0.01%. Transfected cells with doxorubicin treatment were used as positive control. The luciferase activity was estimated by following the manufacturer's instruction (Promega) in a luminometer. […] The inhibitory activity (IC50) of a small molecule on p21 luciferase activity was obtained from the average of three biological replicates using PRISM software.

## CCCc1cc(N=Nc2ccc(S(=O)(=O)O)cc2)ccc1O [MS123, 4-(4-hydroxy-3-propyl-phenylazo)benzenesulfonic acid]
  Ability to inhibit p53-dependent p21 luciferase activity / p21 expression (SAR, words): reduced activity

From patent US20140066410A1, “INHIBITORS OF BROMODOMAINS AS MODULATORS OF GENE EXPRESSION” (ICAHN SCHOOL OF MEDICINE AT MOUNT SINAI, priority 2011, published 2014)
